Test results from the supplement of paper PMC11006884.
The entries are a selection whose mix differs from that of the whole data set. The data scatter; read single values as rough.

The chains behind the UniProt entries cited, without tags or fusion partners. Where a name states a change or a piece, a line headed by the entry shows the natural chain unless it says otherwise.
UniProt P49792, whole entry, looked up: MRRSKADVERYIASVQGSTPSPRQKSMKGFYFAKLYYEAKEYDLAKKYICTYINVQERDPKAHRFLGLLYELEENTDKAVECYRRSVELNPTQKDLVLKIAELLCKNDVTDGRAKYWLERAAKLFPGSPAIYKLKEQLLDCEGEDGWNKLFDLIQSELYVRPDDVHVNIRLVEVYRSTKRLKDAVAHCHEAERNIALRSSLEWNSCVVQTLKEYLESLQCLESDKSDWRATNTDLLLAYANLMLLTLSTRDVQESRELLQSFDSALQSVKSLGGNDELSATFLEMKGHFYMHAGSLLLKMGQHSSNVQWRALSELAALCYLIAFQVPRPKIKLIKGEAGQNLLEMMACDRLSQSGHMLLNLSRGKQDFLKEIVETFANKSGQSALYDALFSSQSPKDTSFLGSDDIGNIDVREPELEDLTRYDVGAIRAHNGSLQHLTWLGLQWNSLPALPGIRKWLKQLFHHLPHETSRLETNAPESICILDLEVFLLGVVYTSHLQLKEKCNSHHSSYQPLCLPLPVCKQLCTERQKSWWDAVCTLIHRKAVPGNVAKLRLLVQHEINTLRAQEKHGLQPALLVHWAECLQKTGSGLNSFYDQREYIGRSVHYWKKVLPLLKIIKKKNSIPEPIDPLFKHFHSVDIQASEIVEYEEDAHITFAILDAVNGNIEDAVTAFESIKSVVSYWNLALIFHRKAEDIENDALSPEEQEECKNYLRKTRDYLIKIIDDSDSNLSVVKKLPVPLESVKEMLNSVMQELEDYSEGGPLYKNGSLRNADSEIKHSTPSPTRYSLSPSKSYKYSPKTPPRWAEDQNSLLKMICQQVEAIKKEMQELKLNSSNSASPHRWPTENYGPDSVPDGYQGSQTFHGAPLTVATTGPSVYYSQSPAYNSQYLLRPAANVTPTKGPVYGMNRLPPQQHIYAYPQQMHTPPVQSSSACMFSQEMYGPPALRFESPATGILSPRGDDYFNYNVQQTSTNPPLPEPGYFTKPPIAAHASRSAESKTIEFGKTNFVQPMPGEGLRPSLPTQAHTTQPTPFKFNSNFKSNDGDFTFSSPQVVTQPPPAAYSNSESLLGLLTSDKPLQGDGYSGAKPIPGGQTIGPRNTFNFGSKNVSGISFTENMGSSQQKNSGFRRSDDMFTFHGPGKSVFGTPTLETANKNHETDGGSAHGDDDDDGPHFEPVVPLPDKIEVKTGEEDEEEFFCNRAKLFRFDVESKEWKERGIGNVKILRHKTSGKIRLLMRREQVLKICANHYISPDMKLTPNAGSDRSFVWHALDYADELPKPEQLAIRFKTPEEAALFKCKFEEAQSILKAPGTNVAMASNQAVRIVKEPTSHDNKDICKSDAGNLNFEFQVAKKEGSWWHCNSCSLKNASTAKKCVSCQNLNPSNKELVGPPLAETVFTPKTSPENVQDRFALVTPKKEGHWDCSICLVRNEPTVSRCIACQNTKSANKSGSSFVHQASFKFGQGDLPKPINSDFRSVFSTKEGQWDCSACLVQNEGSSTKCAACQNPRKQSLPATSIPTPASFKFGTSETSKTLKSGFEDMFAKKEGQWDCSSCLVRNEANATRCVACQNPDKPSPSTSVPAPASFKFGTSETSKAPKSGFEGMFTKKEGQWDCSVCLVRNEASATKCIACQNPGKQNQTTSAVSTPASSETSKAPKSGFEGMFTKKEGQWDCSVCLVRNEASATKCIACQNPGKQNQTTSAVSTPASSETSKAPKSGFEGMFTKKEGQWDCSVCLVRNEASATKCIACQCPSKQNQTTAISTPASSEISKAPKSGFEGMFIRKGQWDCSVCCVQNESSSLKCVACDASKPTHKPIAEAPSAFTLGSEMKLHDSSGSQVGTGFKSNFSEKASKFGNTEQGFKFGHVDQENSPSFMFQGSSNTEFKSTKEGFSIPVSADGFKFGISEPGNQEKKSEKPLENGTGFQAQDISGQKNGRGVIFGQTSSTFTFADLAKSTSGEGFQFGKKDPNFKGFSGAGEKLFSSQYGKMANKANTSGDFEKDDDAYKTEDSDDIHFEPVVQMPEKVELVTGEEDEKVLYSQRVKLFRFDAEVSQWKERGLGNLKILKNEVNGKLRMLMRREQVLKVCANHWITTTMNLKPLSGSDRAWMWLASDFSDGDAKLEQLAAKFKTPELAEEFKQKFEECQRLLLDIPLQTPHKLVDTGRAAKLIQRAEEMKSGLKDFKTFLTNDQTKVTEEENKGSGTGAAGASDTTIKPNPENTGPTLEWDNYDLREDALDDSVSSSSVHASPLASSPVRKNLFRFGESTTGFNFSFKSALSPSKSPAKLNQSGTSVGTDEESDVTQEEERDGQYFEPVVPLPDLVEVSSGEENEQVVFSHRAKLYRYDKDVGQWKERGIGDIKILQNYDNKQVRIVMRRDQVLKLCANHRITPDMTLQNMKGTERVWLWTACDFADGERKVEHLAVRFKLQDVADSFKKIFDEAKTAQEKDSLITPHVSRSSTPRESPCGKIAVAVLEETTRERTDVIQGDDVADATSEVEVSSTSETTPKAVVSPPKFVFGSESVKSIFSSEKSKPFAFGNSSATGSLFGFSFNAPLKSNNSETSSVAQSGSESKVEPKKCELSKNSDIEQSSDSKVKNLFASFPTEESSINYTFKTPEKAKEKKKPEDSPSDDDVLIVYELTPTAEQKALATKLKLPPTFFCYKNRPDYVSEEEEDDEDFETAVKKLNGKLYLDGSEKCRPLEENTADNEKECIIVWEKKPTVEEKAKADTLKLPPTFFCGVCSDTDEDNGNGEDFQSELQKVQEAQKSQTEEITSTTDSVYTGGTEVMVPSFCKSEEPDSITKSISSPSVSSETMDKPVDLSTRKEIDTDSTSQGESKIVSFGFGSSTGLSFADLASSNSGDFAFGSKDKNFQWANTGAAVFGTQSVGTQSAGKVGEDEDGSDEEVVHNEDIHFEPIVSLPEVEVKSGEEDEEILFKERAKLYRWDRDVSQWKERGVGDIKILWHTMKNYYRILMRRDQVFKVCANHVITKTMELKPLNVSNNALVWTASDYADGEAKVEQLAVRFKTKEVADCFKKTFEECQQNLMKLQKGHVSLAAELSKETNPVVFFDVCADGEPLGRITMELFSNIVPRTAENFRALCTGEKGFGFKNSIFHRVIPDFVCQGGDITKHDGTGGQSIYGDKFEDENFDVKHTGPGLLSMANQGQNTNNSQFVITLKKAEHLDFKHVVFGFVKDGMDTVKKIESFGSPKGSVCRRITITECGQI
UniProt P45880: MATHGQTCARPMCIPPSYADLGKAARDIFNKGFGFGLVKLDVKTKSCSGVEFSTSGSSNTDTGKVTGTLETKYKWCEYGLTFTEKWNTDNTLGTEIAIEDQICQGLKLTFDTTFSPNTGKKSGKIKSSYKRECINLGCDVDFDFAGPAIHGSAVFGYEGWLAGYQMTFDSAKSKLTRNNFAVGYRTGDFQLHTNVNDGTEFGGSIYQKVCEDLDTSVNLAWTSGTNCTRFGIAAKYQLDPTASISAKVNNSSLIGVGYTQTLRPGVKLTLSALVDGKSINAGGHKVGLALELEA
UniProt P49915: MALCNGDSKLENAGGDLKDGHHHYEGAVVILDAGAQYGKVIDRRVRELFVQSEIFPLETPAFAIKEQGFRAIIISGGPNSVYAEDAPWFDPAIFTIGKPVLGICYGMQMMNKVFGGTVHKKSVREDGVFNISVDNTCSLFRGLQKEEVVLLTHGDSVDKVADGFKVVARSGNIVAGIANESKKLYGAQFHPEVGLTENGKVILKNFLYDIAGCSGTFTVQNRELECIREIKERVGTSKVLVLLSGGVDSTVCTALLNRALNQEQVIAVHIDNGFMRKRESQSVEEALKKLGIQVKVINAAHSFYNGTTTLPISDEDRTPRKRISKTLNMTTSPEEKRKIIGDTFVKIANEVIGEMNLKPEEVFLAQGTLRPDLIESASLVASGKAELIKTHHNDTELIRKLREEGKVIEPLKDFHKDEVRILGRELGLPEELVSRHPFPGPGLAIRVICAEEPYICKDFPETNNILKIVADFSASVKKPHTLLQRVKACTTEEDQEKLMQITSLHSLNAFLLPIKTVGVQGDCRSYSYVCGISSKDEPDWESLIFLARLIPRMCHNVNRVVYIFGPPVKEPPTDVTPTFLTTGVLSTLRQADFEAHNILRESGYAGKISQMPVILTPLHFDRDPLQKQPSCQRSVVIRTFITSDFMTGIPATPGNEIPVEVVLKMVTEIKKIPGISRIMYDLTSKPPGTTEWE
UniProt P49753: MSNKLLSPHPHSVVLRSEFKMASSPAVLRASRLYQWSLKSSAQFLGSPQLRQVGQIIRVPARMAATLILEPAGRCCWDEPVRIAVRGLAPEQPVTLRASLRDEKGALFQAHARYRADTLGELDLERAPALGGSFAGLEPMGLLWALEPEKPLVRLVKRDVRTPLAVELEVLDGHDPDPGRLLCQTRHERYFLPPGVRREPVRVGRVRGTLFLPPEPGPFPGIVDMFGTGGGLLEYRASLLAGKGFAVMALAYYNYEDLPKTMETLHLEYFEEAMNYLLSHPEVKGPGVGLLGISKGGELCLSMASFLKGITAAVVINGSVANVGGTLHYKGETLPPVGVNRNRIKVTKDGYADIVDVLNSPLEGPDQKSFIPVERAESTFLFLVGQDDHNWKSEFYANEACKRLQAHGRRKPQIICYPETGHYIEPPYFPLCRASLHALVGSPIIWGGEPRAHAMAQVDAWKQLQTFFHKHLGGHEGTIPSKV
UniProt P49790, whole entry, looked up: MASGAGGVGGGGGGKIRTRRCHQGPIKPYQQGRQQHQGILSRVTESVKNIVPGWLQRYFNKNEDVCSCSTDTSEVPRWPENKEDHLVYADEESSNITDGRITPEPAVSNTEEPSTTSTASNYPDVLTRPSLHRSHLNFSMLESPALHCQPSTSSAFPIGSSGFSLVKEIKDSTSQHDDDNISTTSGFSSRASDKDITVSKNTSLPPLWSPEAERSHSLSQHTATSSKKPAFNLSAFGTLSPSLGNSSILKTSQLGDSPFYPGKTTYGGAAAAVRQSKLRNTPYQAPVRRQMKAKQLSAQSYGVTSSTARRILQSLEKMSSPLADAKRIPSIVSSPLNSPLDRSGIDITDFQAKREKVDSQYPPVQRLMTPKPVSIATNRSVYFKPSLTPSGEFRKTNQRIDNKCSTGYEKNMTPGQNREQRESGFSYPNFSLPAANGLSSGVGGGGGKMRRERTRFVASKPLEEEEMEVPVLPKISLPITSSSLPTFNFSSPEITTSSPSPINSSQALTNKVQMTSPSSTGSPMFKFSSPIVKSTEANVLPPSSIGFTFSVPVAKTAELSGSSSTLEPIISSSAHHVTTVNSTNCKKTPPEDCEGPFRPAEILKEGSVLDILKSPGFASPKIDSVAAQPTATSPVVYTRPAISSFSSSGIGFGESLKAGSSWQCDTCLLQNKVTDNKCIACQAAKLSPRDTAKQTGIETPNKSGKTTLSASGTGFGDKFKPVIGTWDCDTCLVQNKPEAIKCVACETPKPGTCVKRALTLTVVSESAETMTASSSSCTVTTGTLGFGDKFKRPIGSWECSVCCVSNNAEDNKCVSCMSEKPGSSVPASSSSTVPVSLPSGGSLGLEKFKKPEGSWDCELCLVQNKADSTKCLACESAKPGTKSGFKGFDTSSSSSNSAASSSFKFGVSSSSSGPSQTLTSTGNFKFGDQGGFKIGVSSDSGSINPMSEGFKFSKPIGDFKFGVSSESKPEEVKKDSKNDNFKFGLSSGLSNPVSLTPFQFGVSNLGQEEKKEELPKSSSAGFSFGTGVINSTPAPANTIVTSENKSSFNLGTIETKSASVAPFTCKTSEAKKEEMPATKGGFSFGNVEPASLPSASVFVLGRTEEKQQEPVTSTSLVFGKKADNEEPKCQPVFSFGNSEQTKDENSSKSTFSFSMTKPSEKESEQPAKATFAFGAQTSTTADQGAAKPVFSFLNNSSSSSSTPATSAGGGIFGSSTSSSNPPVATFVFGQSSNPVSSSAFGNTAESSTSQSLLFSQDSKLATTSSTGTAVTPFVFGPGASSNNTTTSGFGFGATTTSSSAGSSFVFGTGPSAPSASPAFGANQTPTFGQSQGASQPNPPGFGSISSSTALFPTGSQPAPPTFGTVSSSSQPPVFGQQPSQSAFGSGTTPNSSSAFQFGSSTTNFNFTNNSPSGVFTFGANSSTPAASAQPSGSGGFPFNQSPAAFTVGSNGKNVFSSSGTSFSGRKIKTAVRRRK
UniProt P48059, whole entry, looked up: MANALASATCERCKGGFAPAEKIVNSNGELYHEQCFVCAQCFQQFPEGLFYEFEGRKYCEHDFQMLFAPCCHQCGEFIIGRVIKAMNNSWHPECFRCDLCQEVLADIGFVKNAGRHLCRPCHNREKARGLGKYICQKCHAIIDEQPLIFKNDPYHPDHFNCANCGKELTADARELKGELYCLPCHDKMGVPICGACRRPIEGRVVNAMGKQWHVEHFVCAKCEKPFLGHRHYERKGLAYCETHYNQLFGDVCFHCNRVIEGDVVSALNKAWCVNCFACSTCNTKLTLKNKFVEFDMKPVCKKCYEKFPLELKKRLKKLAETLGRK

What follows are targets tested with COC(=O)/C=C/c1ccccc1 [methyl cinnamate] (assay: log2 ratio of iodoacetamide-alkyne labeling of the cysteine site, DMSO over compound (competition); higher = stronger covalent engagement of the cysteine by the compound, active = 1 or more). Settings: 500 µM; treatment time 1 h; system: HEK293T cell lysate.
Procedure, shortened: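 After 1 h at ambient temperature with vehicle or electrophile (500 µM), HEK293T lysate (2 mg/mL) was labelled for 1 h with iodoacetamide alkyne and clicked to sCIP-TMT reagents. Pooled samples were trypsin-digested overnight at 37 °C, streptavidin-enriched, acid-eluted and analysed by Orbitrap Eclipse LC-MS/MS with FAIMS, then quantified in FragPipe over three replicates with duplicate channels. A cysteine's log2 competition ratio is its mean control-channel over mean compound-channel reporter intensity. Cysteines quantified in only one replicate were not included.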

log2 ratio of iodoacetamide-alkyne labeling, inactive:
RANBP2 C82 (UniProt P49792) -0.0816
MKI67 C1251 (UniProt P46013) 0.455
VDAC2 C8 (UniProt P45880) 0.114
CTCF C268 (UniProt P49711) 0.171
RANGAP1 C82 (UniProt P46060) 0.174
MSH2 C176 (UniProt P43246) -0.135
GMPS C449 (UniProt P49915) 0.0813
GRK6 C474 (UniProt P43250) -0.066
IDH3A C222 (UniProt P50213) 0.366
GPD2 C285 (UniProt P43304) 0.422
UniProt P49753_C401 0.0801
RPL27A C144 (UniProt P46776) -0.164
NUP153 C148 (UniProt P49790) -0.0245
LIMS1 C121 (UniProt P48059) 0.149
USP5 C335 (UniProt P45974) -0.102

A portion of the results above:
log2 ratio of iodoacetamide-alkyne labeling, inactive:
LIMS1 C121 (UniProt P48059) 0.149
USP5 C335 (UniProt P45974) -0.102
